The results in this text go back to patent publication US20060242739A1, “Plant nucleotide-sugar pyrophosphatase/phosphodiesterase (nppase), method of obtaining same and use of same in the production of assay devices and in the production of transgenic plants” (Universidad Publica De Navarra, priority 2002, published 2006).

The test concerns the target T1, NPPase from barley leaves (Hordeum vulgare, UniProt Q687E1).
T1 sequence (Q687E1 19-368): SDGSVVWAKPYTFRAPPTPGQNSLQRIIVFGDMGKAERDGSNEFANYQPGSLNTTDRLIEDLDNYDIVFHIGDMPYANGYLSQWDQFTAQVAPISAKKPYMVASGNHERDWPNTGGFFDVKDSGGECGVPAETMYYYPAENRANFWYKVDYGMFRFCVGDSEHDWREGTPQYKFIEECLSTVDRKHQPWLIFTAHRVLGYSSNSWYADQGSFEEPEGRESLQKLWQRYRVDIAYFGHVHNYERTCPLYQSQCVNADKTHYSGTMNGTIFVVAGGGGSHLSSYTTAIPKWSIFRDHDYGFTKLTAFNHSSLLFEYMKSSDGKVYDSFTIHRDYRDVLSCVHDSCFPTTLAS
In words: Enzymatic test of soluble NPPase from barley leaves: kinetic parameters, substrate specificity, effectors.

In the case of `Nc1ncnc2c1ncn2[C@@H]1O[C@H](COP(=O)(O)OS(=O)(=O)O)[C@@H](O)[C@H]1O` [APS, adenosine 5′-phosphosulphate], where the note is “Vmax in % in relation to ADPG, NPPase from barley leaves”, the Vmax was found to be 160%. Under “qualitative”, the “hydrolysis by NPPase (substrate recognition)” value was “catalyses the hydrolysis”.
